{
  "source": "the supplement of paper PMC8728848",
  "binders": {"B1": {"name": "SP15308F-bth-333-19-333 (Bacteroides thetaiotaomicron) (protein)", "chain": "SCNNEWESEQYVQMVSFKAPVNAQGVTPIYIRYKPEGKVTYQLPLIVSGSTMNSKDLNVHVGLDLDTLDVLNVEHFGSRKELFFKPLENKYYEFPETVQIPAGECTSLLPIDFALKDLDQVDKWVLPLAIQSNDPSHNYQANPRKFYRRAMLRISPFNDYSGQYSATAYKVYFKGNEKEAIVPEYHTSYVIDDKTIFFYAGLIDIDRLDRKYYKIKFEFTEEKIDLQTRKLKISSDNEDINLVVKGQPSYTVEEEMDATRPYLKHIYVTINNLEYEFTDYTSVPGYPLEYVVKGSLTMERKINTQIPDEDQAIEW"}},
  "assay_in_all_cases": "glycan array binding signal (z-score within array); higher = stronger binding",
  "conditions_in_all_cases": "glycan notation: IUPAC condensed, linker removed",
  "key": {"Fuc(a1-2)Gal": {"target": "Fuc(a1-2)Gal", "in_short": "(§1)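 The binding signal is a Z-score computed within each array. Data were drawn from 3228 arrays in the Consortium for Functional Glycomics database, restricted to those with a known protein sequence. Scores were averaged over arrays of the same protein sequence at different concentrations or buffers, and over linkers, and negative values can be taken as non-binding.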"}, "Fuc(a1-2)Gal(b1-3)GalNAc": {"target": "Fuc(a1-2)Gal(b1-3)GalNAc", "in_short": "as §1"}, "[1]": {"target": "Fuc(a1-2)Gal(b1-3)GalNAc(a1-3)[Fuc(a1-2)]Gal(b1-4)Glc", "in_short": "as §1"}, "[2]": {"target": "Fuc(a1-2)Gal(b1-3)GalNAc(a1-3)[Fuc(a1-2)]Gal(b1-4)GlcNAc", "in_short": "as §1"}, "[3]": {"target": "Fuc(a1-2)Gal(b1-3)GalNAc(b1-3)Gal", "in_short": "as §1"}, "[4]": {"target": "Fuc(a1-2)Gal(b1-3)GalNAc(b1-3)Gal(a1-4)Gal(b1-4)Glc", "in_short": "as §1"}, "[5]": {"target": "Fuc(a1-2)Gal(b1-3)GalNAc(b1-4)[Neu5Ac(a2-3)]Gal(b1-4)Glc", "in_short": "as §1"}, "Fuc(a1-2)Gal(b1-3)GlcNAc": {"target": "Fuc(a1-2)Gal(b1-3)GlcNAc", "in_short": "as §1"}, "[6]": {"target": "Fuc(a1-2)Gal(b1-3)GlcNAc(b1-2)Man(a1-3)[Fuc(a1-2)Gal(b1-3)GlcNAc(b1-2)Man(a1-6)]Man(b1-4)GlcNAc(b1-4)GlcNAc", "in_short": "as §1"}, "[7]": {"target": "Fuc(a1-2)Gal(b1-3)GlcNAc(b1-2)Man(a1-3)[Fuc(a1-2)Gal(b1-3)GlcNAc(b1-2)Man(a1-6)]Man(b1-4)GlcNAc(b1-4)[Fuc(a1-6)]GlcNAc", "in_short": "as §1"}, "[8]": {"target": "Fuc(a1-2)Gal(b1-3)GlcNAc(b1-3)Gal(b1-4)Glc", "in_short": "as §1"}, "[9]": {"target": "Fuc(a1-2)Gal(b1-3)GlcNAc(b1-3)GalNAc", "in_short": "as §1"}, "[10]": {"target": "Fuc(a1-2)Gal(b1-3)GlcNAc(b1-3)[Fuc(a1-2)Gal(b1-3)GlcNAc(b1-6)]GalNAc", "in_short": "as §1"}, "[11]": {"target": "Fuc(a1-2)Gal(b1-3)GlcNAc(b1-3)[Gal(b1-4)GlcNAc(b1-6)]Gal(b1-4)Glc", "in_short": "as §1"}, "[12]": {"target": "Fuc(a1-2)Gal(b1-3)GlcNAc(b1-3)[Neu5Ac(a2-6)Gal(b1-4)GlcNAc(b1-6)]Gal(b1-4)Glc", "in_short": "as §1"}, "[13]": {"target": "Fuc(a1-2)Gal(b1-3)GlcNAc6S", "in_short": "as §1"}, "[14]": {"target": "Fuc(a1-2)Gal(b1-3)[Fuc(a1-4)]GlcNAc", "in_short": "as §1"}, "[15]": {"target": "Fuc(a1-2)Gal(b1-3)[Fuc(a1-4)]GlcNAc(b1-2)Man(a1-3)[Fuc(a1-2)Gal(b1-3)[Fuc(a1-4)]GlcNAc(b1-2)Man(a1-3)]Man(b1-4)GlcNAc(b1-4)GlcNAc", "in_short": "as §1"}, "[16]": {"target": "Fuc(a1-2)Gal(b1-3)[Fuc(a1-4)]GlcNAc(b1-2)Man(a1-3)[Fuc(a1-2)Gal(b1-3)[Fuc(a1-4)]GlcNAc(b1-2)Man(a1-6)]Man(b1-4)GlcNAc(b1-4)[Fuc(a1-6)]GlcNAc(b1-4)[Fuc(a1-6)]GlcNAc", "in_short": "as §1"}, "[17]": {"target": "Fuc(a1-2)Gal(b1-3)[Fuc(a1-4)]GlcNAc(b1-3)[Fuc(a1-3)[Gal(b1-4)]GlcNAc(b1-6)]Gal(b1-4)Glc", "in_short": "as §1"}, "[18]": {"target": "Fuc(a1-2)Gal(b1-3)[Fuc(a1-4)]GlcNAc(b1-3)[Gal(b1-4)GlcNAc(b1-6)]Gal(b1-4)Glc", "in_short": "as §1"}, "Fuc(a1-2)Gal(b1-4)Glc": {"target": "Fuc(a1-2)Gal(b1-4)Glc", "in_short": "as §1"}, "Fuc(a1-2)Gal(b1-4)Glc6S": {"target": "Fuc(a1-2)Gal(b1-4)Glc6S", "in_short": "as §1"}, "Fuc(a1-2)Gal(b1-4)GlcNAc": {"target": "Fuc(a1-2)Gal(b1-4)GlcNAc", "in_short": "as §1"}, "[19]": {"target": "Fuc(a1-2)Gal(b1-4)GlcNAc(b1-2)Man", "in_short": "as §1"}, "[20]": {"target": "Fuc(a1-2)Gal(b1-4)GlcNAc(b1-2)Man(a1-3)[Fuc(a1-2)Gal(b1-4)GlcNAc(b1-2)Man(a1-6)]Man(b1-4)GlcNAc(b1-4)GlcNAc", "in_short": "as §1"}, "[21]": {"target": "Fuc(a1-2)Gal(b1-4)GlcNAc(b1-2)Man(a1-3)[Fuc(a1-2)Gal(b1-4)GlcNAc(b1-2)Man(a1-6)]Man(b1-4)GlcNAc(b1-4)[Fuc(a1-6)]GlcNAc", "in_short": "as §1"}, "[22]": {"target": "Fuc(a1-2)Gal(b1-4)GlcNAc(b1-2)[Fuc(a1-2)Gal(b1-4)GlcNAc(b1-4)]Man(a1-3)[Fuc(a1-2)Gal(b1-4)GlcNAc(b1-2)Man(a1-6)]Man(b1-4)GlcNAc(b1-4)GlcNAc", "in_short": "as §1"}, "[23]": {"target": "Fuc(a1-2)Gal(b1-4)GlcNAc(b1-3)Gal(b1-4)GlcNAc", "in_short": "as §1"}, "[24]": {"target": "Fuc(a1-2)Gal(b1-4)GlcNAc(b1-3)Gal(b1-4)GlcNAc(b1-2)Man(a1-3)[Fuc(a1-2)Gal(b1-4)GlcNAc(b1-3)Gal(b1-4)GlcNAc(b1-2)Man(a1-6)]Man(b1-4)GlcNAc(b1-4)GlcNAc", "in_short": "as §1"}},
  "note": "Some of the results follow.",
  "data": [
    {"binder": "B1", "values": [
      {"measurement": "glycan array binding signal (z-score)", "setting": "Fuc(a1-2)Gal", "value": -0.518},
      {"measurement": "glycan array binding signal (z-score)", "setting": "Fuc(a1-2)Gal(b1-3)GalNAc", "value": -0.116},
      {"measurement": "glycan array binding signal (z-score)", "setting": "[1]", "value": -0.093},
      {"measurement": "glycan array binding signal (z-score)", "setting": "[2]", "value": -1.37},
      {"measurement": "glycan array binding signal (z-score)", "setting": "[3]", "value": -0.613},
      {"measurement": "glycan array binding signal (z-score)", "setting": "[4]", "value": -1.74},
      {"measurement": "glycan array binding signal (z-score)", "setting": "[5]", "value": 0.435},
      {"measurement": "glycan array binding signal (z-score)", "setting": "Fuc(a1-2)Gal(b1-3)GlcNAc", "value": 0.204},
      {"measurement": "glycan array binding signal (z-score)", "setting": "[6]", "value": 0.737},
      {"measurement": "glycan array binding signal (z-score)", "setting": "[7]", "value": -0.077},
      {"measurement": "glycan array binding signal (z-score)", "setting": "[8]", "value": -0.538},
      {"measurement": "glycan array binding signal (z-score)", "setting": "[9]", "value": -1.71},
      {"measurement": "glycan array binding signal (z-score)", "setting": "[10]", "value": 0.606},
      {"measurement": "glycan array binding signal (z-score)", "setting": "[11]", "value": -0.314},
      {"measurement": "glycan array binding signal (z-score)", "setting": "[12]", "value": -0.841},
      {"measurement": "glycan array binding signal (z-score)", "setting": "[13]", "value": -0.912},
      {"measurement": "glycan array binding signal (z-score)", "setting": "[14]", "value": -0.643},
      {"measurement": "glycan array binding signal (z-score)", "setting": "[15]", "value": 0.921},
      {"measurement": "glycan array binding signal (z-score)", "setting": "[16]", "value": 1.98},
      {"measurement": "glycan array binding signal (z-score)", "setting": "[17]", "value": -0.356},
      {"measurement": "glycan array binding signal (z-score)", "setting": "[18]", "value": -0.933},
      {"measurement": "glycan array binding signal (z-score)", "setting": "Fuc(a1-2)Gal(b1-4)Glc", "value": -1.21},
      {"measurement": "glycan array binding signal (z-score)", "setting": "Fuc(a1-2)Gal(b1-4)Glc6S", "value": 0.887},
      {"measurement": "glycan array binding signal (z-score)", "setting": "Fuc(a1-2)Gal(b1-4)GlcNAc", "value": -1.51},
      {"measurement": "glycan array binding signal (z-score)", "setting": "[19]", "value": -0.339},
      {"measurement": "glycan array binding signal (z-score)", "setting": "[20]", "value": -0.837},
      {"measurement": "glycan array binding signal (z-score)", "setting": "[21]", "value": 0.226},
      {"measurement": "glycan array binding signal (z-score)", "setting": "[22]", "value": -0.932},
      {"measurement": "glycan array binding signal (z-score)", "setting": "[23]", "value": 0.138},
      {"measurement": "glycan array binding signal (z-score)", "setting": "[24]", "value": 3.55}
    ]}
  ]
}
